# Reference: PubChem BioAssay AID1347426 (Functional Genomics Laboratory (NCATS/FGL), 2020)
# Among all 31,000 sequences or so, about 1,400 (4.5%) were called active.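 Rule for the calls: active = median seed-adjusted z-score above 1 or below -1; inactive = the rest.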 The list shows a part of the results.
# Assay: Novel Modifiers of Survival Motor Neuron (SMN) Protein: Gene Identification via Genome-wide siRNA Screen;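 note: luminescence tracks full-length SMN protein made from the SMN2 reporter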
# Settings: HEK293T SMN2-luciferase reporter, siRNA knockdown, 72 h; actives lie on both sides
# Method in brief: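 Each of three siRNAs per gene is reverse-transfected (1 pmol) into reporter HEK293T cells whose luciferase output tracks SMN protein level. After 72 h culture, ONE-Glo luminescence is control-normalized, log10-transformed and MAD-standardized; Common Seed Analysis deprioritizes seed-driven hits.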
row,Sequence,median seed-adjusted z-score
1,UGGAAGAAUUUGUUUGUAATT against ADIPOR2,inactive: -0.614
2,CAGCCUUAAUUUGAAAGCATT against KCND3,inactive: 0.282
3,GGAAGAAAAUGACGAACCATT against POLR3D,inactive: -0.434
4,UGUAGAAGCAGAACCCAAATT against OSBPL1A,inactive: 0.0845
5,GCGUGAUCAUCGAUGUGGATT against SLC5A7,inactive: 0.624
6,UGAUGGAUGCGGAACUGUUTT against RALGDS,inactive: -0.235
7,GCAAAGAUAGAAGAAGAUATT against DDI2,active: 1.27
8,GAGCUGACUUCGGAACUAATT against LCN2,inactive: 0.123
9,GCAAAGGUAUUUGAGCAUATT against CAT,inactive: 0
10,GAGCGUAAAGUACCUGAUUTT against NMNAT3,inactive: 0.0197
11,CUAUAAUUCCAGAGCAUAATT against KLF5,inactive: -0.338
12,GCAGGAUGCUGUCAACAUATT against PSMD4,active: 1.46
13,AGACAGUGUGGGUCCUGGATT against CD300E,inactive: 0.337
14,CCCUCACCGCUUUCAUCUUTT against TM7SF2,inactive: -0.674
15,CAGCGAAAAUGAUAUCAGATT against CTNNA3,inactive: 0.249
16,GGAGGGAUAUAACUAGAUATT against ACTR2,inactive: 0.548
17,GCACCAGGGAAGACCCUAATT against COX5B,inactive: 0.45
18,GGGCUGUUGAGGAAGAAGATT against FKBP8,inactive: -0.304
19,GGAGGCAACUGAUAGACUATT against DUSP14,inactive: 0.0654
20,GCUAAGAUGAUGGUAAAUATT against PRSS35,inactive: -0.0119
21,CACCAGUGCUUGUAAGCGATT against EOMES,inactive: -0.0248
22,GCAUCGUCAUGGUGUACUUTT against TM9SF4,inactive: -0.0191
23,GCAUCGUCAUGAGUAUGUATT against XDH,inactive: 0.806
24,GGAAAGUUAAGGUCGAUGATT against KTN1,inactive: -0.233
25,GCCUUAAGGUAUUCGUGUATT against EXTL1,inactive: 0
26,GAGCACUGCUACGACAUCUTT against DPP7,inactive: -0.217
27,CAGUUGACAUCAGAGGAUATT against AKR1C4,inactive: -0.0323
28,GAAUAUCCCUGAAUACGAATT against CHD3,inactive: 0.589
29,GAUCUGUGCUAUACUGACATT against EFTUD2,active: -1.25
30,AGCUAACAGCGGCUCAAGATT against NR1H2,inactive: 0.069

# Given as tab-separated lines: entries from further up
row	Sequence	median seed-adjusted z-score
20	GCUAAGAUGAUGGUAAAUATT against PRSS35	inactive: -0.0119
23	GCAUCGUCAUGAGUAUGUATT against XDH	inactive: 0.806
